PubChem BioAssay AID1259268 – Sanger Institute – 2017

Test: 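Kinase silencing that acts in synergy with trametinib, cetuximab or BYL719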 (follow-up of hits)
Cell system: human SNUC1 colorectal cancer cells
Reagents: single siRNA against human genes
Challenge: anchor drugs added a day after transfection: BYL719 1 µM, cetuximab 5 µg/ml or trametinib 10 nM, versus DMSO vehicle
Measured: 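Replicate-averaged viability as a fraction of the non-targeting control, and a score of how far knock-down plus drug exceeds their separate effects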
Direction: synergy score with trametinib and synergy score with cetuximab and synergy score with BYL719: higher = stronger synergy of knock-down with drug
Rule for the call: 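Active if the synergy score is above 0.10 for at least one of the three drugs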
Calls: active = synergy with at least one drug; inactive = no synergy with any drug
In all, the deposit lists 160 reagents; shown is an unselected part. 58 of all reagents (36%) count as active. 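Trametinib by itself roughly halved viability, making its arm harsher than the cetuximab and BYL719 arms.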 The numbers tell different reagents against one gene apart. Not all columns of the deposit are shown. Not stated in the record: the amount of reagent, the time to read-out.

no.	Target gene	reagent no.	synergy score with trametinib	synergy score with cetuximab	synergy score with BYL719	activity call
1	MPP3 (MAGUK p55 scaffold protein 3)	1	0.0368	-0.0765	-0.198	inactive
2	MPP3 (MAGUK p55 scaffold protein 3)	2	0.114	-0.0663	-0.204	active
3	MPP3 (MAGUK p55 scaffold protein 3)	3	0.239	-0.0729	0.00789	active
4	MPP3 (MAGUK p55 scaffold protein 3)	4	0.203	-0.262	-0.193	active
5	PIK3CA	1	0.0799	0.0811	0.0682	inactive
6	PIK3CA	2	0.0568	0.0244	-0.04	inactive
7	PIK3CA	3	0.0848	-0.0893	-0.178	inactive
8	PIK3CA	4	0.0982	0.0822	-0.047	inactive
9	HUNK (hormonally up-regulated Neu-associated kinase)	1	0.0931	-0.0267	-0.123	inactive
10	HUNK (hormonally up-regulated Neu-associated kinase)	2	0.207	-0.144	0.0231	active
11	HUNK (hormonally up-regulated Neu-associated kinase)	3	0.0415	-0.0623	-0.0703	inactive
12	HUNK (hormonally up-regulated Neu-associated kinase)	4	0.135	0.024	-0.167	active
13	NLK (nemo like kinase)	1	-0.061	-0.00174	-0.228	inactive
14	NLK (nemo like kinase)	2	0.314	0.183	-0.23	active
15	NLK (nemo like kinase)	3	0.129	0.255	-0.174	active
16	NLK (nemo like kinase)	4	-0.0434	0.0978	-0.23	inactive
17	STK36 (serine/threonine kinase 36)	1	0.126	-0.0663	-0.0537	active
18	STK36 (serine/threonine kinase 36)	2	0.06	-0.125	-0.361	inactive
19	STK36 (serine/threonine kinase 36)	3	-0.112	-0.108	-0.313	inactive
20	STK36 (serine/threonine kinase 36)	4	-0.0229	-0.262	-0.391	inactive
21	RPS6KA4 (ribosomal protein S6 kinase A4)	1	0.124	0.23	-0.192	active
22	RPS6KA4 (ribosomal protein S6 kinase A4)	2	0.253	0.116	-0.138	active
23	RPS6KA4 (ribosomal protein S6 kinase A4)	3	0.0267	-0.216	-0.233	inactive
24	RPS6KA4 (ribosomal protein S6 kinase A4)	4	0.0325	-0.0348	-0.0829	inactive
25	SYK (spleen associated tyrosine kinase)	1	0.128	0.146	-0.048	active
26	SYK (spleen associated tyrosine kinase)	2	0.297	0.0987	-0.089	active
27	SYK (spleen associated tyrosine kinase)	3	0.293	-0.0021	-0.0499	active
28	SYK (spleen associated tyrosine kinase)	4	-0.0299	-0.0663	-0.148	inactive
29	BMPR2 (bone morphogenetic protein receptor type 2)	1	0.122	-0.0406	-0.285	active
30	BMPR2 (bone morphogenetic protein receptor type 2)	2	0.13	0.0441	-0.0442	active
31	BMPR2 (bone morphogenetic protein receptor type 2)	3	0.0552	-0.0663	-0.175	inactive
32	BMPR2 (bone morphogenetic protein receptor type 2)	4	-0.104	-0.0663	-0.23	inactive
33	BRAF (B-Raf proto-oncogene, serine/threonine kinase)	1	0.0334	-0.152	-0.0921	inactive
34	BRAF (B-Raf proto-oncogene, serine/threonine kinase)	2	0.0748	-0.0663	-0.109	inactive
35	BRAF (B-Raf proto-oncogene, serine/threonine kinase)	3	-0.128	-0.06	-0.132	inactive
36	BRAF (B-Raf proto-oncogene, serine/threonine kinase)	4	0.017	-0.0663	-0.23	inactive
37	PINK1 (PTEN induced kinase 1)	1	-0.0225	-0.226	-0.362	inactive
38	PINK1 (PTEN induced kinase 1)	2	0.12	0.017	-0.12	active
39	PINK1 (PTEN induced kinase 1)	3	-0.0468	-0.222	-0.235	inactive
40	PINK1 (PTEN induced kinase 1)	4	0.142	-0.0983	-0.188	active
41	CSNK2A2 (casein kinase 2 alpha 2)	1	0.0628	-0.0775	-0.212	inactive
42	CSNK2A2 (casein kinase 2 alpha 2)	2	-0.06	-0.155	-0.086	inactive
43	CSNK2A2 (casein kinase 2 alpha 2)	3	-0.094	-0.00798	-0.26	inactive
44	CSNK2A2 (casein kinase 2 alpha 2)	4	0.0247	-0.146	-0.295	inactive
45	SYNCRIP (synaptotagmin binding cytoplasmic RNA interacting protein)	1	0.14	0.107	-0.0683	active
46	SYNCRIP (synaptotagmin binding cytoplasmic RNA interacting protein)	2	-0.00328	0.037	-0.23	inactive
47	SYNCRIP (synaptotagmin binding cytoplasmic RNA interacting protein)	3	0.064	0.201	0.0211	active
48	SYNCRIP (synaptotagmin binding cytoplasmic RNA interacting protein)	4	0.152	0.144	-0.196	active
49	CAMK2N1 (calcium/calmodulin dependent protein kinase II inhibitor 1)	1	-0.0696	-0.011	-0.0819	inactive
50	CAMK2N1 (calcium/calmodulin dependent protein kinase II inhibitor 1)	2	-0.0458	-0.0663	-0.108	inactive
51	CAMK2N1 (calcium/calmodulin dependent protein kinase II inhibitor 1)	3	0.0554	0.0601	-0.165	inactive
52	CAMK2N1 (calcium/calmodulin dependent protein kinase II inhibitor 1)	4	-0.148	0.0446	-0.196	inactive

Records listed so far whose gene name starts with P or p:
Target gene	reagent no.	synergy score with trametinib	synergy score with cetuximab	synergy score with BYL719	activity call
PIK3CA	1	0.0799	0.0811	0.0682	inactive
PIK3CA	2	0.0568	0.0244	-0.04	inactive
PIK3CA	3	0.0848	-0.0893	-0.178	inactive
PIK3CA	4	0.0982	0.0822	-0.047	inactive
PINK1 (PTEN induced kinase 1)	1	-0.0225	-0.226	-0.362	inactive
PINK1 (PTEN induced kinase 1)	2	0.12	0.017	-0.12	active
PINK1 (PTEN induced kinase 1)	3	-0.0468	-0.222	-0.235	inactive
PINK1 (PTEN induced kinase 1)	4	0.142	-0.0983	-0.188	active
